Laboratory results reported in publication PMC9532900.
The exact form of at least one protein or probe is not confirmed. At least one result comes from cells or an extract, where the contact may be indirect. For some of these results: A negative result means that nothing was seen under these conditions.

Sequences of proteins named here, by UniProt entry; tags and fusion partners are left off. A change or cut given only in a name is not applied to a line headed by its entry.
UniProt Q16665: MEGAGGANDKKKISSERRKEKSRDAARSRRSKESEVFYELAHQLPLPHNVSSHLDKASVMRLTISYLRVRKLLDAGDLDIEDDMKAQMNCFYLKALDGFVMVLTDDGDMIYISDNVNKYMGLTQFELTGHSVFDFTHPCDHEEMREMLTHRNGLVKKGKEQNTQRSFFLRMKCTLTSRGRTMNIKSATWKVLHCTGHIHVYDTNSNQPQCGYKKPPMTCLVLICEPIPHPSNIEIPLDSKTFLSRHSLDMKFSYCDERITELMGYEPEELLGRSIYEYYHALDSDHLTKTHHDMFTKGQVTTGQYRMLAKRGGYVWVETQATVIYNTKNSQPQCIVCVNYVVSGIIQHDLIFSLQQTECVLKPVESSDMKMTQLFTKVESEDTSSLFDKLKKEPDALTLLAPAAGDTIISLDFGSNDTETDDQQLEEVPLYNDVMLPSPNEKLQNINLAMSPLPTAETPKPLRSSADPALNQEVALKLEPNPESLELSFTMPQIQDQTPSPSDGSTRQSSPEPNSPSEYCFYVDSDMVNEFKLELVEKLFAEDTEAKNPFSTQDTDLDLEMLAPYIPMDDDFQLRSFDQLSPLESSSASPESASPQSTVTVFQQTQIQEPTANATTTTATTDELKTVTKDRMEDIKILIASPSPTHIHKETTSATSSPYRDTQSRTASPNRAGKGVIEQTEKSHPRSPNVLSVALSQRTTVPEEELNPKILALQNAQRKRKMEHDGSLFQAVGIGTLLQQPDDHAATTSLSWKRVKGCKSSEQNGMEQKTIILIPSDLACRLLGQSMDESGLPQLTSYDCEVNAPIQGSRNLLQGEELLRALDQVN

Columns and labels:
[1] = target: HIF1α (UniProt Q16665); assay: competition with a labelled probe; details: not stated, EMSA performed as described previously (ref 25), protein in an extract, protein details: HA (pHA-HIF1α)
[2] = target: HIF1α (UniProt Q16665); assay: EMSA; details: supershift with anti-HIF1α, probe N1; not stated; EMSA performed as described previously (ref 25); protein in an extract; protein details: HA (pHA-HIF1α)
[3] = 30-fold unlabeled vs probe N1, label: none (competitor)
[4] = unlabeled vs probe N3, label: none (competitor)

Sequence	binding result [1, 3]	binding result [1, 4]	binding result ([1]; 30-fold unlabeled vs probe N1)	binding result ([1]; unlabeled vs probe N3)	binding result [2]
AGCTTGCCCTAAAAGCTGTCTCAGA (double strand) [HIF1α-HRE mut]	no binding	no binding			
AGCTTGCCCTACGTGCTGTCTCAGA (double strand) [HIF1α-HRE (consensus)]			binds	binds	binds
TGGGAGGCAAAGTCGCTGGG (double strand) [RCAN1.1-HRE mut]	no binding	no binding			
